Common to all, as to experiment: pull-down; HEK293T cells transfected with constructs of both tagged proteins; pull-down with S protein beads; Western blot
For orientation: Immunoblotting shows a protein as a band on a membrane.

By UniProt entry, the sequences of proteins in these tests, tags left out. Residues count along the entry.
UniProt O15321, residues 28-606: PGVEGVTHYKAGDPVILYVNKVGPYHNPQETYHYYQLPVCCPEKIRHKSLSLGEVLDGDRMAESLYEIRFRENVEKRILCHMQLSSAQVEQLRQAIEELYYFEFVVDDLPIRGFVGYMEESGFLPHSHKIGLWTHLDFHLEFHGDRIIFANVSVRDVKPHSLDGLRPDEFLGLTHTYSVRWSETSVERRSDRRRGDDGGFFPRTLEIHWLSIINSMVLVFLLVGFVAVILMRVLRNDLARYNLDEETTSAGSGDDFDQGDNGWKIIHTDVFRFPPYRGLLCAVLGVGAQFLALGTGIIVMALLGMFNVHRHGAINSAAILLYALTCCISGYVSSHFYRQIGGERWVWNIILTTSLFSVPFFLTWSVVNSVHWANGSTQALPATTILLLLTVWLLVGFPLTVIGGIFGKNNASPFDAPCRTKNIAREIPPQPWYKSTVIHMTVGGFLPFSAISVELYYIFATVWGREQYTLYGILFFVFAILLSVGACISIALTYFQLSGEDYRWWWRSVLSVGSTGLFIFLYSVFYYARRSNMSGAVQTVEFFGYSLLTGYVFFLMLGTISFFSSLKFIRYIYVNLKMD

For one experiment, the target named is T1, PLD3 (human) (UniProt Q8IV08).
T1 sequence: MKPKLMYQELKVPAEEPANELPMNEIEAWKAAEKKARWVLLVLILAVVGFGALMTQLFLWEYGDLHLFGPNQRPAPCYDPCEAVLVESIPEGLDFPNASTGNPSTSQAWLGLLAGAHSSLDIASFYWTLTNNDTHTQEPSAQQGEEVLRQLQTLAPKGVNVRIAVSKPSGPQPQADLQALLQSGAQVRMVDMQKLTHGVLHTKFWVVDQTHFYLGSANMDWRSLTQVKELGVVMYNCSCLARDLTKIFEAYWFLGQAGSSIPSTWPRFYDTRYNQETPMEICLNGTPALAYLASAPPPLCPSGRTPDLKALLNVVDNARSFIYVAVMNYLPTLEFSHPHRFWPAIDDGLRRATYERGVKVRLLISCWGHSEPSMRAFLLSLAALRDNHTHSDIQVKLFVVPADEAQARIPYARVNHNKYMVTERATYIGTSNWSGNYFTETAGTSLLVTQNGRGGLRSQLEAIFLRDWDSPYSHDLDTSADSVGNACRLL

The target of the next experiment is T2, PLD4 (human) (UniProt Q96BZ4).
T2 sequence: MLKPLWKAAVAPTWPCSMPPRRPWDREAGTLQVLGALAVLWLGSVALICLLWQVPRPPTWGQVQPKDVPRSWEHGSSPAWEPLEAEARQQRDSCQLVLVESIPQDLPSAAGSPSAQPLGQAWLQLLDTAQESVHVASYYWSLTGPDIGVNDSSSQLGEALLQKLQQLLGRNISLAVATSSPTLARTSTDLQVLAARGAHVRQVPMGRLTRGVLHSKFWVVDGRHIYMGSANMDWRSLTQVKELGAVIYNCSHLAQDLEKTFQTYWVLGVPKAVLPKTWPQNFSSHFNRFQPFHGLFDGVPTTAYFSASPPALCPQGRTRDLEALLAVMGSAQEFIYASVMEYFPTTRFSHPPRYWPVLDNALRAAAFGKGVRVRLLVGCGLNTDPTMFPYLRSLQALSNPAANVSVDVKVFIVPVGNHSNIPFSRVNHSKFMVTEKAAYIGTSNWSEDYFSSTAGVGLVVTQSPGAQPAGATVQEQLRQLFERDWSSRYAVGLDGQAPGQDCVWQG

The target of experiment [1] is SFB-tagged TM9SF1 (not stated (Human ORFeome V5.1 library or DNASU plasmid)) (UniProt O15321).
The target of experiment [2] is T3, SFB-tagged TM9SF3 (not stated (Human ORFeome V5.1 library or DNASU plasmid)) (UniProt Q9HD45).
T3 sequence: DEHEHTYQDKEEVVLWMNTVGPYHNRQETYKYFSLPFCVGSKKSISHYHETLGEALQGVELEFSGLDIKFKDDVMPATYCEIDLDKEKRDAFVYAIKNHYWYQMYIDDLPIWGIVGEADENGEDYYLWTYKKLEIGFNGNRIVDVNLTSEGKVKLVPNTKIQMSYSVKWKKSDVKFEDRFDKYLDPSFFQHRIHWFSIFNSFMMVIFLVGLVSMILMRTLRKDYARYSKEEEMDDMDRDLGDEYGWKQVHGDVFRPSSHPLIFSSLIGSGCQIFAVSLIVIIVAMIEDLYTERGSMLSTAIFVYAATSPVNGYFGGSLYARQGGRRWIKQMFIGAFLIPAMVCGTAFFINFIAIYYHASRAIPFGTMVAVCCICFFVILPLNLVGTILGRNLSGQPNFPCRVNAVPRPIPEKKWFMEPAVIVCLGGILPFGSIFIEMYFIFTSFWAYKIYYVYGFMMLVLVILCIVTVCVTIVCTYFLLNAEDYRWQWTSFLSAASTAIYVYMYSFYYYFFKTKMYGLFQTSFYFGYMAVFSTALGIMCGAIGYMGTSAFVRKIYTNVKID

For the next experiment, the target named is T4, phospholipase D1 (human) (UniProt Q13393).
T4 sequence: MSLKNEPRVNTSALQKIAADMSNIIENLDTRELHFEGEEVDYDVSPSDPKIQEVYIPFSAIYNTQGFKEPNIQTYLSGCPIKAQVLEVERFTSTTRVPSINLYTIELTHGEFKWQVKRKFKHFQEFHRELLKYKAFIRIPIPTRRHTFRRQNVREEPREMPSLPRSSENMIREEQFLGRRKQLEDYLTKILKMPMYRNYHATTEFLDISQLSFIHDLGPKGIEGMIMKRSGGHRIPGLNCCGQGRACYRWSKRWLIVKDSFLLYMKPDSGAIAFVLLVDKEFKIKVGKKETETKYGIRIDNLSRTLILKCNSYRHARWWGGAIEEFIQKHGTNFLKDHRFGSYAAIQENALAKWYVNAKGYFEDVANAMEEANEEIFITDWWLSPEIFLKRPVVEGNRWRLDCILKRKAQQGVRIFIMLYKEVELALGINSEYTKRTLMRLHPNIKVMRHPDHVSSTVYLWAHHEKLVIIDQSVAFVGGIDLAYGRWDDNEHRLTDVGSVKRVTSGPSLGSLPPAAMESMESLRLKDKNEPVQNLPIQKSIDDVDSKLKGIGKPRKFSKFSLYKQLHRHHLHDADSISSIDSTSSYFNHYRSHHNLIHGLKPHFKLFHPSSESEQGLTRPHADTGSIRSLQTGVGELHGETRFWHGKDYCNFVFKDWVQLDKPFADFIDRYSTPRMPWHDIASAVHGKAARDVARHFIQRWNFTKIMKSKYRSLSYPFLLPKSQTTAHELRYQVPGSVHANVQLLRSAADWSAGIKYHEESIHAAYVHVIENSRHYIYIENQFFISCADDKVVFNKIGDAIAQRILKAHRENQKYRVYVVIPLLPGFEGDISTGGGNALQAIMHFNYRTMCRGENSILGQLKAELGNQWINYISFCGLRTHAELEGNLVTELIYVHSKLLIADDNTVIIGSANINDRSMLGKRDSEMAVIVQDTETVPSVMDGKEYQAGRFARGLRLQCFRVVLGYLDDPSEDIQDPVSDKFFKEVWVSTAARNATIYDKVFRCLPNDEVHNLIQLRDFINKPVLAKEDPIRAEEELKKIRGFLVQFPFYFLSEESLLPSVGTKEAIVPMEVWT

Results are given in words; binding and its absence hold for the method and conditions named. In cells and extracts the contact can be indirect. Some binding calls cover weakened binding; strength is not graded here. For some of these results: Sequences can lack the tags named with a protein.

B1: PLD4 (protein, UniProt Q96BZ4 1-506)
chain: T2 sequence
For B1, the binding entry with PLD3 (human) and with PLD4 (human) was “binds” each time.

B2: HA-tagged PLD4 (protein, UniProt Q96BZ4 1-506)
chain: T2 sequence
On to B2, for which the binding entry in experiment [1] and in experiment [2] was “binds” throughout.

B3: HA-tagged PLD3 (protein, UniProt Q8IV08 1-490)
chain: T1 sequence
For B3, the binding result in experiment [1] and in experiment [2] was “binds” each time.

B4: PJA2 (protein, UniProt O43164 1-708)
chain: MSQYTEKEPAAMDQESGKAVWPKPAGGYQTITGRRYGRRHAYVSFKPCMTRHERSLGRAGDDYEVLELDDVPKENSSGSSPLDQVDSSLPSEPIFEKSETEIPTCGSALNQTTESSQSFVAVHHSEEGRDTLGSSTNLHNHSEGEYIPGACSASSVQNGIALVHTDSYDPDGKHGEDNDHLQLSAEVVEGSRYQESLGNTVFELENREAEAYTGLSPPVPSFNCEVRDEFEELDSVPLVKSSAGDTEFVHQNSQEIQRSSQDEMVSTKQQNNTSQERQTEHSPEDAACGPGHICSEQNTNDREKNHGSSPEQVVRPKVRKLISSSQVDQETGFNRHEAKQRSVQRWREALEVEESGSDDLLIKCEEYDGEHDCMFLDPPYSRVITQRETENNQMTSESGATAGRQEVDNTFWNGCGDYYQLYDKDEDSSECSDGEWSASLPHRFSGTEKDQSSSDESWETLPGKDENEPELQSDSSGPEEENQELSLQEGEQTSLEEGEIPWLQYNEVNESSSDEGNEPANEFAQPAFMLDGNNNLEDDSSVSEDLDVDWSLFDGFADGLGVAEAISYVDPQFLTYMALEERLAQAMETALAHLESLAVDVEVANPPASKESIDGLPETLVLEDHTAIGQEQCCPICCSEYIKDDIATELPCHHFFHKPCVSIWLQKSGTCPVCRRHFPPAVIEASAAPSSEPDPDAPPSNDSIAEAP
B4: the binding entry with phospholipase D1 (human) was “binds”.

The values are drawn from paper PMC8864472.
